Results reported in paper PMC6292949.
These are yes or no findings as the source states them, for the method shown. Binding seen in cells or lysates may run through a third protein. These calls come from enrichment with a bait or labelling near it, and not all partners need be listed.

Target: CBL bearing a One-STrEP-tag at its carboxyl-terminus (CBL-OST) (mouse (endogenous in thymocytes of gene-targeted mice)) (UniProt P22682)
Test: affinity purification with mass spectrometry; OST affinity purification of endogenous CBL-OST from lysates of mouse thymocytes, unstimulated or stimulated for 30 s with anti-CD3 plus anti-CD4 antibodies; protein intensities compared with wild-type cells

binding: binds
B1: Ubiquitin-associated and SH3 domain-containing protein A (UBASH3A) (protein, UniProt Q3V3E1 1-624)
chain: MAAGETQLYAKVSNKLKGRSTPSLLDPLLAMGFPTHTALKALAATGRKTAEAAADWLHGHCNDPSLDDPIPQEYALFLCPTGPLLEKLQEFWRESRRQCAKNRAHEVFPHVTLCDFFTCEDQKVECLYEALRRAGDRILGSFPTLVPLVLHSSISYLGFFINDSPADAIREFAMAFATEAAVLADCTIKPCTKQLHLTLAHKFYPHHQRTLEQLAKAIQPSHSCQWTAALYSRDMRFVHYQTLKALFQYKPQNADELMLSAGDYIFVDPTQQEEASEGWAIGISHRTGCRGFLPENYTERANEADTWVKHRTYTFNLAMDLNSRKDFEASCRGNGEPHTPSMSKSVSSIQALQATISRRGILVVRHGERVDQVFGKSWLQQCTTADGKYYRPDLNFPRSLPRRSNGIKDFENDPPLSSCGIFQARLAGEALLDSGVRVTAVFASPALRCVQTAKHILEELKLEKKLKIRVEPGIFEWMKWEASKATLTFLTLEELKEANFNVDLDYRPALPRCSLMPAESYDQYVERCAVSMGQIINTCPQDMGITLIVSHSSALDSCTRPLLGLPPRECGDFAQLVRKIPSLGMCFCEENREDGKWDLVNPPVKTLTHGANSVFNWRNWISSN
